Reference: US20200055937A1
These are yes or no findings as the source states them, for the method shown. Some results given as binding are weak or reduced against the parent protein; the word gives no strength.

Protein sequences, listed by entry. Tags and fused reporters are not part of them. Lines headed by an entry give the natural chain unless they say otherwise; changes in a name come on top.
UniProt P16410: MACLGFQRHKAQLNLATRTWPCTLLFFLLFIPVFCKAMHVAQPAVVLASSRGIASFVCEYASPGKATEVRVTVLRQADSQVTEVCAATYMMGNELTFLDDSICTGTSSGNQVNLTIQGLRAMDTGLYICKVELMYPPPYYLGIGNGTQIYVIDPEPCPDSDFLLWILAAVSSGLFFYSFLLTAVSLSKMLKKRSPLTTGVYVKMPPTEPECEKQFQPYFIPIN

Assays:
[1] = target: T1, cyno Macaque CTLA-4 (cyno Macaque) (UniProt G7PL88); assay: summary of Examples 1-5
T1 sequence: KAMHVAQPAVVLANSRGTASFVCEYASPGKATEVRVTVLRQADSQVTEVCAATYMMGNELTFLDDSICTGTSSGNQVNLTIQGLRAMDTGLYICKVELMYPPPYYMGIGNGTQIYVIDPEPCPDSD

human CTLA-4 (human) = human CTLA-4 (human) (UniProt P16410); assay: summary of Examples 1-5

B1: MAb A4 (13F10D7) (antibody, V domains shown)
VH: EVQLRQSGPELVKPGTSVKISCKASGYKFTDHFINWVKQNHGKSLEWIGDINPNNGGTNSNQKFEGKATLTVDKSSSTAYMELRSLTSEDSAVYYCARLRREYFYAMDYWGQGTSVTVSS
VL: DIVMTQAAFSNPVTLGTSASISCRSSKSLLHSNGITYLYWYLQKPGQSPQLLIYQMSNLASGVPDRFSSSGSGTDFTLRISRVEAEDVGVYYCAQNLELPLTFGAGTKLELK
binding [1]: binds

B2: Humanized Ab 14 (VH6 + VL3) (antibody, human IgG1, kappa, V domains shown)
VH: QVQLVQSGAEVKKPGASVKVSCKASGYKFTDHFINWVKQAPGQGLEWIGDINPNNGGTNSNQKFEGKATLTVDKSISTAYMELRRLRSDDTAVYYCARLRREYFYAMDYWGQGTLVTVSS
VL: DIVMTQSPLSLPVTPGEPASISCRSSKSLLHSNGITYLYWYLQKPGQSPQLLIYQMSNLASGVPDRFSSSGSGTDFTLKISRVEAEDVGVYYCAQNLELPLTFGGGTKLEIKR
binding [1]: binds
binding (human CTLA-4 (human)): binds
